# From the supplement of paper PMC7666118
# Amino acid sequences for entries named in this document (tags omitted). A change or cut given only in a name is not applied to a line headed by its entry.
# UniProt Q9NPJ6: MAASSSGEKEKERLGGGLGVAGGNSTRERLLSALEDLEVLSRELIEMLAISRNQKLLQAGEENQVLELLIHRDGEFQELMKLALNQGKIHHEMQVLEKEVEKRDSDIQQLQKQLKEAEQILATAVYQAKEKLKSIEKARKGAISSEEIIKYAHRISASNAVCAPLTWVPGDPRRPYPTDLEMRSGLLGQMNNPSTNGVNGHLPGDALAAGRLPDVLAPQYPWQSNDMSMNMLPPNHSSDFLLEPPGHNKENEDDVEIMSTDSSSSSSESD
# UniProt Q15691: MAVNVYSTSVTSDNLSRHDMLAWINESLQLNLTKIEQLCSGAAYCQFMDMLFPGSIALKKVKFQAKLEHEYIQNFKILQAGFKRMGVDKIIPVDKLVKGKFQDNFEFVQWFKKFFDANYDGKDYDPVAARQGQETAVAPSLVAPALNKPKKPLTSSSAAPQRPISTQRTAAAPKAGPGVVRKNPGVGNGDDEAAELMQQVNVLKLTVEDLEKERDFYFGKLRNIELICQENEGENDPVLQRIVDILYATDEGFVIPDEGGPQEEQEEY
# UniProt Q8IVH4: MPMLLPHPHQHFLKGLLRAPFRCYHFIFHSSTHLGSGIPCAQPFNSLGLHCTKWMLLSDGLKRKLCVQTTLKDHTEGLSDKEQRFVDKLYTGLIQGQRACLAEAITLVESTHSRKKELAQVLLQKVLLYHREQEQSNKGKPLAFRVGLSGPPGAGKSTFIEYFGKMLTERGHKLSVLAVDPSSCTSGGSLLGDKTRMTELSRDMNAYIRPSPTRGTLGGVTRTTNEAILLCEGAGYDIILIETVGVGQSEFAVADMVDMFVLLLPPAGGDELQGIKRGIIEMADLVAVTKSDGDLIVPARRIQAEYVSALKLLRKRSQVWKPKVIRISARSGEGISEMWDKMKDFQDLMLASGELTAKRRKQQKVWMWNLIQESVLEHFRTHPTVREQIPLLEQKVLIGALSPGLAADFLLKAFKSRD
# UniProt Q99759: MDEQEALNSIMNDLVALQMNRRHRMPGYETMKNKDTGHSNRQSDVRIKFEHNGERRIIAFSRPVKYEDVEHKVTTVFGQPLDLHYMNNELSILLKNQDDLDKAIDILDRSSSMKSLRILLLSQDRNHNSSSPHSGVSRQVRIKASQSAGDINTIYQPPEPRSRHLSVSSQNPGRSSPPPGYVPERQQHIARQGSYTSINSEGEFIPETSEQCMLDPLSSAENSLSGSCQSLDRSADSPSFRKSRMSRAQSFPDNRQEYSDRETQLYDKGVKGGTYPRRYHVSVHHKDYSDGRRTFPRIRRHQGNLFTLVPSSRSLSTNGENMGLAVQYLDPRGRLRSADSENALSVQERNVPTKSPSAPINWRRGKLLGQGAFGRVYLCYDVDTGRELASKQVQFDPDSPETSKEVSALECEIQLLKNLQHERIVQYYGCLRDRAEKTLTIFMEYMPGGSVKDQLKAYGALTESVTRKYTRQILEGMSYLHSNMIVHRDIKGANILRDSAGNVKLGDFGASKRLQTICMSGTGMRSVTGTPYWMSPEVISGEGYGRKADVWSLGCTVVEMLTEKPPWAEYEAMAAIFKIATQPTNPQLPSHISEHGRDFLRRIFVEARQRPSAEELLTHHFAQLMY
# UniProt P25205: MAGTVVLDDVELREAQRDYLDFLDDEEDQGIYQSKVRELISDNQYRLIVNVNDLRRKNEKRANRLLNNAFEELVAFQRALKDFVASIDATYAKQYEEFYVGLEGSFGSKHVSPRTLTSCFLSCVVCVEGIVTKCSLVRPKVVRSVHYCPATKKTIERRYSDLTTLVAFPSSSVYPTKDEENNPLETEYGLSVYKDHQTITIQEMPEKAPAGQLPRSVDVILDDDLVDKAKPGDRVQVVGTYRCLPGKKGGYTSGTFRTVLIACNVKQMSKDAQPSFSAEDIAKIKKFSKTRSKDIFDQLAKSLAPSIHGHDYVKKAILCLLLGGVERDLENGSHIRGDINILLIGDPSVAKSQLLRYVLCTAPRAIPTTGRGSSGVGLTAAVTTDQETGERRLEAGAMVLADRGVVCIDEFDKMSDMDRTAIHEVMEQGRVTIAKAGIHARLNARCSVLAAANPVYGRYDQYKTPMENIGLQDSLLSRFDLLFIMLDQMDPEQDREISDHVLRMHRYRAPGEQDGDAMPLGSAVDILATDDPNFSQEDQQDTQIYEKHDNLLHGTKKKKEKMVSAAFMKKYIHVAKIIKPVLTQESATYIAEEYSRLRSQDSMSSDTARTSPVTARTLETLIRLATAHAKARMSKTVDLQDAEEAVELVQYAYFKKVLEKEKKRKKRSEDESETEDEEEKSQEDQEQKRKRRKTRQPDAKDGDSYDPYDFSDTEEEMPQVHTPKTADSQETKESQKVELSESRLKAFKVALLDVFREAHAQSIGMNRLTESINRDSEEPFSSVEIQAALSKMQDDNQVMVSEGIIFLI
# UniProt Q15648, whole entry: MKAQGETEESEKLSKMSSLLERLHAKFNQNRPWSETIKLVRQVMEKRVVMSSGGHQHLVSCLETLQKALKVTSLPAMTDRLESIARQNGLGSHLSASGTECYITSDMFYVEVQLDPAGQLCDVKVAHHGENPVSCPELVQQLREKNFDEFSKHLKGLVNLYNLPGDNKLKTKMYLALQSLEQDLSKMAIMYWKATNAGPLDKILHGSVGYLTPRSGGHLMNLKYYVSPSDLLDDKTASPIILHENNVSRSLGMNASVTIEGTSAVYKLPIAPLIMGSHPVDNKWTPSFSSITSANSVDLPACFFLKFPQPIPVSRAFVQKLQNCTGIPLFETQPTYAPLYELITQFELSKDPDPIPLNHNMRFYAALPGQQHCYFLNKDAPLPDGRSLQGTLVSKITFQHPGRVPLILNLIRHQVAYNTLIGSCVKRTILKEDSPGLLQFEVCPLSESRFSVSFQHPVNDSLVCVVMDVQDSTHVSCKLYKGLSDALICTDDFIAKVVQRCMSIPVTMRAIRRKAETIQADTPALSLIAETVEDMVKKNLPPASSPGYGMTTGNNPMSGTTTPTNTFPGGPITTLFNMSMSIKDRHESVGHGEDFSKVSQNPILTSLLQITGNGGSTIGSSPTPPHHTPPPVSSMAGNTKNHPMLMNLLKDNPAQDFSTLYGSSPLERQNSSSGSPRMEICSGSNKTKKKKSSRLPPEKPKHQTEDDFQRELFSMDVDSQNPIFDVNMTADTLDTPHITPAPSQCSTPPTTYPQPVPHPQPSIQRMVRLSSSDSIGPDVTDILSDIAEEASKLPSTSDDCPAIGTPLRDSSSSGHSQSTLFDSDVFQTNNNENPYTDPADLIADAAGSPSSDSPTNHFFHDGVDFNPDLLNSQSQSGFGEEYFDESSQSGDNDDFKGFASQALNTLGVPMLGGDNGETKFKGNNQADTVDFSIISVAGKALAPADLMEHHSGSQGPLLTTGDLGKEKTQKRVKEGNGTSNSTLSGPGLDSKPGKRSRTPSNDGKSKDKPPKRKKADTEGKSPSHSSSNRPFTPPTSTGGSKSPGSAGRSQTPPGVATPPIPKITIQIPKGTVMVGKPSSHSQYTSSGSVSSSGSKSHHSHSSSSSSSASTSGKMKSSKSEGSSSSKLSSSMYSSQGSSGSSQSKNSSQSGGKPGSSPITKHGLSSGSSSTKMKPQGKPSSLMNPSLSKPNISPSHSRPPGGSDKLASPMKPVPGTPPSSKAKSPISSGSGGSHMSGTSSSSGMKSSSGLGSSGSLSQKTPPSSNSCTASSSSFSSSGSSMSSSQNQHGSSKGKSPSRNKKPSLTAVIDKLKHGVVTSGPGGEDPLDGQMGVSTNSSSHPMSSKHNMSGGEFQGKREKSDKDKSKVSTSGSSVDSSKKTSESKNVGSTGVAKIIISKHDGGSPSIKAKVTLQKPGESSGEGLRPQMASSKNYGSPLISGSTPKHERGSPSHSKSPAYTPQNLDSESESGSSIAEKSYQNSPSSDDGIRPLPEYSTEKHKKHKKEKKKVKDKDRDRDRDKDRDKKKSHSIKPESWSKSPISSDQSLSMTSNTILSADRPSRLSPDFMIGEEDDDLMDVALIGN
# UniProt P41218: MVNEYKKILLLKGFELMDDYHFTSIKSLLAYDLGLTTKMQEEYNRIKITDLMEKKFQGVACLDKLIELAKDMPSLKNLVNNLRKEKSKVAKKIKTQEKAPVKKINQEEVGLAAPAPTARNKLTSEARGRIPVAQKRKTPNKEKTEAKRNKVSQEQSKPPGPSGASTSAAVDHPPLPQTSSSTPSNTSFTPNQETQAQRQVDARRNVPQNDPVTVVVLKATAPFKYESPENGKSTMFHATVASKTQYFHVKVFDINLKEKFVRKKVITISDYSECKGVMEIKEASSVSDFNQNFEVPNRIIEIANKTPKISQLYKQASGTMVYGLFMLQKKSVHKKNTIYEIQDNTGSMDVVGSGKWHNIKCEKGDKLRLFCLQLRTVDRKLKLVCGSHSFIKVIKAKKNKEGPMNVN
# UniProt P61244, whole entry: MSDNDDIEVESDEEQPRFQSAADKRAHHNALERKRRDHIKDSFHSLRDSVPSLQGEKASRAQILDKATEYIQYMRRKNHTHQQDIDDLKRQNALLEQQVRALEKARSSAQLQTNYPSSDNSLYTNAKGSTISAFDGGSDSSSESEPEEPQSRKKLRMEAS
# UniProt Q96RN5: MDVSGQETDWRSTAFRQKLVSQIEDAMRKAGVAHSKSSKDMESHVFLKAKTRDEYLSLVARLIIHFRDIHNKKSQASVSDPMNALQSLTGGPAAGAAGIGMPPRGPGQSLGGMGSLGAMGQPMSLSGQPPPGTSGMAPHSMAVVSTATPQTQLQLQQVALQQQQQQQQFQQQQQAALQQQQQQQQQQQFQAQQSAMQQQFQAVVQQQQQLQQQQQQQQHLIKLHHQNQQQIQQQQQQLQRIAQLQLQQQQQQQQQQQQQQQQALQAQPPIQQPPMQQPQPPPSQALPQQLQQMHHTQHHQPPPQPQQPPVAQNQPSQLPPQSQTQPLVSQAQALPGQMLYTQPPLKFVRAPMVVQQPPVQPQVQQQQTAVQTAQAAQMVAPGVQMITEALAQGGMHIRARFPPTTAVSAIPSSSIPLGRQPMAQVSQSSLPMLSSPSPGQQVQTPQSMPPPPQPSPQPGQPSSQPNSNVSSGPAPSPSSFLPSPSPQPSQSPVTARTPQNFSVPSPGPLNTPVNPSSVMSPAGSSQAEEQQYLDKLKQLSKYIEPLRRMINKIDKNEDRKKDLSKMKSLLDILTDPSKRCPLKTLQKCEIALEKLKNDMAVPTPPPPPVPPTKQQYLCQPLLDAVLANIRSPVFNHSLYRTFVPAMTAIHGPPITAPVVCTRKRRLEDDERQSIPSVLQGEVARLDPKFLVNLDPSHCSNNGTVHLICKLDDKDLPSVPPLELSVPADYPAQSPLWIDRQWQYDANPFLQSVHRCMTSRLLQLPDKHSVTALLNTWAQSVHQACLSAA
# UniProt Q9Y3A3: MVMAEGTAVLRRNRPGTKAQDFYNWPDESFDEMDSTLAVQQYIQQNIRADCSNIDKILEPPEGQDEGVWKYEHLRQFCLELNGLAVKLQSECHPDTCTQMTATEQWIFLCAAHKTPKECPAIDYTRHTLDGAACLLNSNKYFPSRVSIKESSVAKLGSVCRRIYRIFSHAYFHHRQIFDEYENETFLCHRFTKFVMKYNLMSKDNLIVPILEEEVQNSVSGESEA
# UniProt Q9NRN9: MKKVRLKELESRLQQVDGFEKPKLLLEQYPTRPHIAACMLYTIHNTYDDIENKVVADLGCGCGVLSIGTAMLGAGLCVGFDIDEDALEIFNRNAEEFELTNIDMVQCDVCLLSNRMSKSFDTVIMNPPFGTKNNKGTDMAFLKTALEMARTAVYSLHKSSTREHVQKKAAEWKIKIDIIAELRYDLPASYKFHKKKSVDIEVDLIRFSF
# UniProt Q14566: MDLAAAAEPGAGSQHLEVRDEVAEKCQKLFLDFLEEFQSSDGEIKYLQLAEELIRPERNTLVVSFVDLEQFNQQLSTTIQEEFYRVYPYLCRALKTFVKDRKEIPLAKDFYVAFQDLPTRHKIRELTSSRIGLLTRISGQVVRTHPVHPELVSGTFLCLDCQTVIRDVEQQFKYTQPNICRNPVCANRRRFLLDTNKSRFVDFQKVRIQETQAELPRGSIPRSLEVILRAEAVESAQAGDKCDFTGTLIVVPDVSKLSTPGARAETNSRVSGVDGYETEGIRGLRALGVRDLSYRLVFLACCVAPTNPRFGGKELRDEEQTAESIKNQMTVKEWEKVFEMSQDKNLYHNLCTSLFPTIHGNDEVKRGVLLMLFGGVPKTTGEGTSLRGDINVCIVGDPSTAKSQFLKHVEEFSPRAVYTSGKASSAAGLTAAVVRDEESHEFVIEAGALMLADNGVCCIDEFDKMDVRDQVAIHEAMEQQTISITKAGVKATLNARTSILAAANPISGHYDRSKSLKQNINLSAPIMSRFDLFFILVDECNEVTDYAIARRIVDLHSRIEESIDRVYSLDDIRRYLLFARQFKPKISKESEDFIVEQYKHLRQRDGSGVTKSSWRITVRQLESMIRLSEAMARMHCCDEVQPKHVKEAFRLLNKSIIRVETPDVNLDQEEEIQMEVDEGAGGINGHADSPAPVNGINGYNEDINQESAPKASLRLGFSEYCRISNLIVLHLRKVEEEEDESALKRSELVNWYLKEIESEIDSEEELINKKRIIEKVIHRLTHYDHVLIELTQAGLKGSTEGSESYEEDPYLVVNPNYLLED
# The other results are listed elsewhere or left out.
# Compound: COc1ccc(Cn2ccc3ccc(C(=O)NO)cc32)cc1
# Assay: dose-dependent thermal stabilisation call (2D-TPP, DLPTP, 10% FDR) (binary (1 = stabilised)); higher = stabilised by the compound
# Settings: system: HL-60 intact cells; concentration range 0.04-10 µM
row,Target,dose-dependent thermal stabilisation call
1,MED4 (UniProt Q9NPJ6),inactive: 0
2,MECP2 (UniProt P51608),inactive: 0
3,MAPRE1 (UniProt Q15691),inactive: 0
4,MIF4GD (UniProt A9UHW6),inactive: 0
5,MAP1LC3B2 (UniProt A6NCE7),inactive: 0
6,MPDU1 (UniProt O75352),inactive: 0
7,MRPS2 (UniProt Q9Y399),inactive: 0
8,MCCC1 (UniProt Q96RQ3),inactive: 0
9,MMAA (UniProt Q8IVH4),inactive: 0
10,MIER1 (UniProt Q8N108),inactive: 0
11,MAP3K3 (UniProt Q99759),inactive: 0
12,MCL1 (UniProt Q07820),inactive: 0
13,MCM3 (UniProt P25205),inactive: 0
14,MRPS34 (UniProt P82930),inactive: 0
15,MRPL24 (UniProt Q96A35),inactive: 0
16,MGAT1 (UniProt P26572),inactive: 0
17,MLF1IP (UniProt Q71F23),inactive: 0
18,MED1 (UniProt Q15648),inactive: 0
19,MRC2 (UniProt Q9UBG0),inactive: 0

# Single entries from the list.
# In dose-dependent thermal stabilisation call, MRPS2 (UniProt Q9Y399) shows inactive: 0
# In dose-dependent thermal stabilisation call, MCL1 (UniProt Q07820) shows inactive: 0

# Later entries

row,Target,dose-dependent thermal stabilisation call
1,MED27 (UniProt Q6P2C8),inactive: 0
2,MECR (UniProt Q9BV79),inactive: 0
3,MBP (UniProt P02686),inactive: 0
4,MRPS22 (UniProt P82650),inactive: 0
5,MED26 (UniProt O95402),inactive: 0
6,MPV17 (UniProt P39210),inactive: 0
7,MNDA (UniProt P41218),inactive: 0
8,MED16 (UniProt Q9Y2X0),inactive: 0
9,MAX (UniProt P61244),inactive: 0
10,MGC3207,inactive: 0
11,MPZL1 (UniProt O95297),inactive: 0
12,METTL9 (UniProt Q9H1A3),inactive: 0
13,MED15 (UniProt Q96RN5),inactive: 0
14,MOBKL3 (UniProt Q9Y3A3),inactive: 0
15,METTL5 (UniProt Q9NRN9),inactive: 0
16,MRPL23 (UniProt Q16540),inactive: 0
17,MCM6 (UniProt Q14566),inactive: 0
18,ME2 (UniProt P23368),active: 1
